Measured data: PubChem BioAssay AID1053209 (Peter MacCallum Cancer Centre, 2014)
Test: 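Knock-downs that sensitise mouse osteosarcoma cells to doxorubicin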 (follow-up of hits). Cell system: mouse primary osteosarcoma cells. Reagents: single siRNA against mouse genes, 25 nM (text also states 40 nM). Time to read-out: about 120 h (48 h before drug, then 72 h with drug). Conditions: doxorubicin 100 nM (about IC30-40), added 48 h after transfection, for 72 h. Measured: 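Viability measured by ATP luminescence with and without doxorubicin, each replicate scaled to non-targeting siRNA NT1, averaged over two replicates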. Scale: viability with doxorubicin, vs NT1: higher = more viable cells under doxorubicin; viability without drug, vs NT1: higher = more viable cells without drug. Call rule: 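Counted as active (class LC dox) if viability falls to 0.7 of NT1 or below under doxorubicin but stays within 0.7 to 1.1 without drug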.
Here is an unselected part of about 1,580 deposited reagents. 207 of them (13%) count as active. 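Rows are single siRNAs; four siRNAs per gene were tested, a gene counting as confirmed only when at least two agree.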 Unmarked entries are inactive. The numbers tell different reagents against one gene apart. Not all columns of the deposit are shown.

Depletion of Clrn1 (clarin 1) #1 gave: combined effect class low viability only with doxorubicin; normal without drug (active); viability with doxorubicin, vs NT1 = 0.64; viability without drug, vs NT1 = 0.84. Silencing of Clrn1 (clarin 1) #2 resulted in: combined effect class high viability only with doxorubicin; viability with doxorubicin, vs NT1 = 1.1; viability without drug, vs NT1 = 1. Clrn1 (clarin 1) #3 gave combined effect class normal viability with and without drug; viability with doxorubicin, vs NT1 = 0.94; viability without drug, vs NT1 = 0.99. Against Clrn1 (clarin 1) #4, the entry reads combined effect class normal viability with and without drug; viability with doxorubicin, vs NT1 = 0.88; viability without drug, vs NT1 = 0.94. With knock-down of Rps10 (ribosomal protein S10) #1 the results were combined effect class normal viability with and without drug; viability with doxorubicin, vs NT1 = 0.94; viability without drug, vs NT1 = 0.86. Depletion of Rps10 (ribosomal protein S10) #2 came out at: combined effect class low viability with and without drug; viability with doxorubicin, vs NT1 = 0.69; viability without drug, vs NT1 = 0.68.

Against Rps10 (ribosomal protein S10) #3 the deposit lists combined effect class normal viability with and without drug; viability with doxorubicin, vs NT1 = 1.06; viability without drug, vs NT1 = 0.96. Silencing of Rps10 (ribosomal protein S10) #4 resulted in: combined effect class high viability only with doxorubicin; viability with doxorubicin, vs NT1 = 1.23; viability without drug, vs NT1 = 1.04. Knock-down of Peli1 (pellino 1) #1 gave: combined effect class normal viability with and without drug; viability with doxorubicin, vs NT1 = 0.9; viability without drug, vs NT1 = 0.87. Peli1 (pellino 1) #2 gave combined effect class normal viability with and without drug; viability with doxorubicin, vs NT1 = 1.04; viability without drug, vs NT1 = 1. For Peli1 (pellino 1) #3 the deposit lists combined effect class low viability only with doxorubicin; normal without drug (active); viability with doxorubicin, vs NT1 = 0.69; viability without drug, vs NT1 = 0.99. After knock-down of Peli1 (pellino 1) #4, the record shows combined effect class normal viability with and without drug; viability with doxorubicin, vs NT1 = 1.09; viability without drug, vs NT1 = 0.98.

Rps27a (ribosomal protein S27A) #1 showed combined effect class low viability with and without drug; viability with doxorubicin, vs NT1 = 0.17; viability without drug, vs NT1 = 0.34. For Rps27a (ribosomal protein S27A) #2 the deposit lists combined effect class low viability only with doxorubicin; normal without drug (active); viability with doxorubicin, vs NT1 = 0.52; viability without drug, vs NT1 = 0.78. Rps27a (ribosomal protein S27A) #3 gave combined effect class low viability with and without drug; viability with doxorubicin, vs NT1 = 0.22; viability without drug, vs NT1 = 0.32. After knock-down of Rps27a (ribosomal protein S27A) #4, the screen gave combined effect class low viability with and without drug; viability with doxorubicin, vs NT1 = 0.37; viability without drug, vs NT1 = 0.61. Napa #1 gave combined effect class normal viability with and without drug; viability with doxorubicin, vs NT1 = 0.72; viability without drug, vs NT1 = 0.84. After knock-down of Napa #2, the screen gave combined effect class low viability only with doxorubicin; normal without drug (active); viability with doxorubicin, vs NT1 = 0.39; viability without drug, vs NT1 = 0.77.

Napa #3 showed combined effect class low viability only with doxorubicin; normal without drug (active); viability with doxorubicin, vs NT1 = 0.64; viability without drug, vs NT1 = 0.87. With knock-down of Napa #4 the results were combined effect class normal viability with and without drug; viability with doxorubicin, vs NT1 = 0.94; viability without drug, vs NT1 = 0.96. With knock-down of Lrrcc1 (leucine rich repeat and coiled-coil domain containing 1) #1, the record shows combined effect class high viability only with doxorubicin; viability with doxorubicin, vs NT1 = 1.18; viability without drug, vs NT1 = 1.08. Depletion of Lrrcc1 (leucine rich repeat and coiled-coil domain containing 1) #2 gave: combined effect class normal viability with and without drug; viability with doxorubicin, vs NT1 = 0.95; viability without drug, vs NT1 = 0.98. With knock-down of Lrrcc1 (leucine rich repeat and coiled-coil domain containing 1) #3, the screen gave combined effect class normal viability with and without drug; viability with doxorubicin, vs NT1 = 0.94; viability without drug, vs NT1 = 0.88. Lrrcc1 (leucine rich repeat and coiled-coil domain containing 1) #4 showed combined effect class normal viability with and without drug; viability with doxorubicin, vs NT1 = 0.86; viability without drug, vs NT1 = 0.98.

Against Mettl1 (methyltransferase 1, tRNA methylguanosine) #1, the entry reads combined effect class normal viability with and without drug; viability with doxorubicin, vs NT1 = 1.02; viability without drug, vs NT1 = 1.02. Against Mettl1 (methyltransferase 1, tRNA methylguanosine) #2, the values are combined effect class normal viability with and without drug; viability with doxorubicin, vs NT1 = 0.92; viability without drug, vs NT1 = 0.98. Mettl1 (methyltransferase 1, tRNA methylguanosine) #3 scored combined effect class high viability only with doxorubicin; viability with doxorubicin, vs NT1 = 1.1; viability without drug, vs NT1 = 0.97. Knock-down of Mettl1 (methyltransferase 1, tRNA methylguanosine) #4 gave: combined effect class low viability only with doxorubicin; normal without drug (active); viability with doxorubicin, vs NT1 = 0.43; viability without drug, vs NT1 = 0.75.
